Literature values as cited in patent US20050186294A1 (priority 1999, published 2005).
At least one structure is not confirmed: it was looked up by name or label, or the drawing left a doubt.

Columns and labels:
[1] = system: human cavernosum; details: in vitro
[2] = system: rabbit cavernosum; details: in vitro

Structure (SMILES): CCCc1nc(C)c2c(=O)[nH]c(-c3cc(S(=O)(=O)N4CCN(CC)CC4)ccc3OCC)nn12 [vardenafil, Vardenafil]
- relaxation of cavernosum [1]: concentration dependant relaxation
- relaxation of cavernosum [2]: concentration dependant relaxation
